The results are deposited in PubChem (AID1159506; NCATS, 2015).

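Genome-wide siRNA knockdown in TC32 Ewing sarcoma cells, comparing luciferase light from an NR0B1-promoter reporter with a CMV-promoter reporter 48 hours after transfection. Each siRNA was applied at 20 nM. A z-score of the log NR0B1-over-CMV signal, less the median of siRNAs with the same seed; more negative means a stronger specific loss of the NR0B1 reporter.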

This is part of the screen; most of the strongest results are not listed here. Sequences are the guide (antisense) strand, without overhang.

Sequence	gene	seed-corrected z-score
UAUGAGACUGGAAUGAUAU	ZNF154	-0.5455
UGUCCAUCCACACCUUAGC	SEMA5B	1.281
UCCACAUCGAUGAUCACGC	SLC5A7	0.05808
ACAUGUAUUCCCAUAUUCC	ZNF529	0.8152
UCCUCGUCAUGGAACAUGG	ASPG	-0.5608
AGAGAUUCGAUUUGGUUGC	FAM127B	0.6105
UAGAGGUCAUCUGCCCAGC	HCRTR1	0.1411
UUGCUAAACAUAGGCAACU	HLA-DQA2	-0.1326
UUCAUUAGAGUUGUAAGGC	ZNF519	0.2203
UAAGUGUAGUAGACGAGGG	ABCD4	0.06252
UUUUCCUUGACUUAGAUGA	NBAT1	-0.1064
AAAGAGAGUACUUACAAUU	DPP6	0.4715
UUAGUAAUGAGCUCGGACA	HIST1H1E	-0.6648
UACGUCAUAGCUAGUAUUC	ANKRD24	0.5455
UUUAGAAGAAUGACGAGCA	CLRN3	-0.3708
UUUCUCUGUAAUAGUAUCC	ENO4	-0.637
UAGAGUCGCAUGUCCUUCU	EIF2S2P4	0.14
UAGGAGUCCACCUUGUUGC	HSPG2	-0.1173
UAUCUGCACAGAGUCACGU	ANO9	-0.2743
UUGACUCUGACUGGUGUGG	ZNF497	-1.384
UAAACUGCUUGAGUUUGGG	INTU	-0.003726
UUGCGAUGCACUUUAGGAG	GUF1	0.2176
UCUGGUUGUUGUAUAAACC	NOD1	0.2052
UUAAUAGACAGCUUUUCGG	C16orf62	0.8324
UCCACUUUCGGAAGUCUCC	LOC729268	-0.003197
UUUGCAUCUUCUAACGUAG	RBM46	0.01505
UAAUGGGUACUGAUAGUGA	CHRNB1	0.03815
UCCCUUAUAAAGAUGUAGC	IL12RB2	0.3156
UGAUGAACAGGUAGCAGAG	FAM159A	1.524
AUAGGGAAUCUCACCGGUG	ZNF546	-0.1762
UCCUCUAUGAAGUCACGGC	SETDB1	-0.2405
AUUCGUUACUUUUCAAGCC	ZNF229	0.1216
UACUUUAUUCACUAACACG	ZNF771	0.3577
UUUGCUGUUCGUGCAAUCA	MED21	0.8645
UUACUGAUCUUACACUCUC	ATRN	0.03163
AUAGGUAUGGGUCAAGUUC	SLC4A9	0.8109
UGAGCAUCAACCUUACUGC	AFM	-0.06856
UCCUCAGUUAUCUCCGUGC	IGFBP1	1.186
UUGCAGGAUGGUUAAAAGC	ZNF486	0.1624
UGUAACAUCAGCGUAGCGG	CGNL1	1.804
UUGGUGUAAUCGAUGUAGC	ZNF462	-0.1135
UUCCGUUUCCUCAAAGUCC	BRD8	0.3865
UCUCUGUCGAUUAAAUAGG	KCTD5	-0.5408
UAGCAUGCUAUCUUUGUUG	PCDHGB7	0.756
UUCGUUAUGCUUGUCGCGG	B4GALT2	-1.231
UUCCAUUUGGAAAUGUCCC	ARL6IP5	-0.01034
UCUAGUACUCCCGUGUUUC	ADGRV1	-1.042
AUUUGUGCCAGAACAAAUU	LOC727775	-0.5147
AUCGCUACAAGCUUAGCUG	VPS54	0.07856
UAAACGAUCCUCAUCUGUC	EFR3B	0.1588
UGUGCUUCCGAGAUGAACU	LMTK3	0.02504
UCUUGUACAGUUGAAGAUG	RMDN2	0.2286
UCUUUGUAAAUGUACACUC	CTHRC1	0.4655
AAAGCGAACUUUGCAAACU	GPR162	0.8028
UGAUGUUUGCUGGACACUC	CTBP1-AS2	0.1497
AUCUGGACCAUCCUUAUCA	FOXR1	-1.785
UCUGUGAAUUGAACCUUCG	MRPL21	0.4934
UGAGGUCUUCUAGAUCUGU	NAT9	-0.7067
UUUAGUUCUUUAUUCUGGG	CCDC68	-1.047
UAUCACCCAAUUCAGAUAC	TMEM165	0.6498
UGACCAGCAAUGUACACGG	HNRNPLL	0.266
UUCACUCUUAUAGUAAGCC	RILPL1	-0.03992
UCGAUUCACAGGCUCAUGC	SH2B3	0.3741
UGGUUGAACAGACUUACCC	TMEM266	-0.7887
ACACGUCUCACGACUGAUC	PRSS8	-0.2107
AUCACUAUCUUUUCGACUC	RSBN1L	0.7537
UUAGGGUCAACCGCAUCUC	KIF13B	-0.8581
UCUUCUUUUAGCAAGCGGC	IZUMO2	0.278
AGUAUUAUGAUAGCUUUCC	RPS7P4	0.3059
AAUCUAUCCAGACUUCUGG	FIGLA	-0.8143
UCAACGAAUAGCUAAAGUG	SGK223	0.4067
AACUCUUAUAACCAAACCC	LOC342541	-0.6355
UUAAUUAUGGGAAAAAGCA	HLA-DQB2	-0.2679
UUUCAUCCUACGGUUCUGA	HOXD9	0.6808
UAUUCGAAGAACUUUCCGC	SLC9A7	0.6621
AAGAUGAUGAGUGCGAUCU	MEF2D	1.067
AUGGUCUCCAUGUCGUUCC	PTGES	-0.5621

Once more, the final 9:

{"sequence": "AGUAUUAUGAUAGCUUUCC", "gene": "RPS7P4", "seed-corrected z-score": "0.3059"}
{"sequence": "AAUCUAUCCAGACUUCUGG", "gene": "FIGLA", "seed-corrected z-score": "-0.8143"}
{"sequence": "UCAACGAAUAGCUAAAGUG", "gene": "SGK223", "seed-corrected z-score": "0.4067"}
{"sequence": "AACUCUUAUAACCAAACCC", "gene": "LOC342541", "seed-corrected z-score": "-0.6355"}
{"sequence": "UUAAUUAUGGGAAAAAGCA", "gene": "HLA-DQB2", "seed-corrected z-score": "-0.2679"}
{"sequence": "UUUCAUCCUACGGUUCUGA", "gene": "HOXD9", "seed-corrected z-score": "0.6808"}
{"sequence": "UAUUCGAAGAACUUUCCGC", "gene": "SLC9A7", "seed-corrected z-score": "0.6621"}
{"sequence": "AAGAUGAUGAGUGCGAUCU", "gene": "MEF2D", "seed-corrected z-score": "1.067"}
{"sequence": "AUGGUCUCCAUGUCGUUCC", "gene": "PTGES", "seed-corrected z-score": "-0.5621"}